Experimental data as given in patent US20100173332A1, “Method for the Fluorescent Detection of Nitroreductase Activity Using Nitro-Substituted Aromatic Compounds” (Auckland Uniservices Limited, priority 2006, published 2010).
Some results were stated once for a whole list of compounds, not compound by compound.

Sequences of proteins named here, by UniProt entry; tags and fusion partners are left off.
UniProt P15559, whole entry: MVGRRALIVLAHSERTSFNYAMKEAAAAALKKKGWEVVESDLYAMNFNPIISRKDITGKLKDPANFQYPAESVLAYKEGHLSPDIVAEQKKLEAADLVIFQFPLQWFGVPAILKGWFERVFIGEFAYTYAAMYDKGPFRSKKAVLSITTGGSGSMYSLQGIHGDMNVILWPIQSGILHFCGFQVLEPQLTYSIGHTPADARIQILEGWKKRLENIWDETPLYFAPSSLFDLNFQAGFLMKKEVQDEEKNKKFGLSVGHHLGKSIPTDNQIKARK

Target: T1, NAD(P)H dehydrogenase quinone 1 (DT-diaphorase; NQO1) (Homo sapiens, UniProt P15559)
T1 construct: expressed in transfected cells; host or cells: MDA231 human breast cancer cell line, clonal derivative MDA231 DTD
Test: Detecting human aerobic nitroreductase activity in MDA231 DTD cells
Assay type: cell-based
Settings: 100 μM, 4 hr
Procedure: The human breast cancer cell line (MDA231^WT) and a clonal derivative (MDA231^DTD) engineered to express the human aerobic reductase, NAD(P)H dehydrogenase quinone 1 (DT-diaphorase; NQO1) under the control of a constitutive promoter were seeded into 96-well plates at a density of 1×10^5 cells/well. When samples were equilibrated to 37° C., 5% CO2 for 2 hr and compounds 1 to 15 were added to a final concentration of 100 μM for 4 hr. Test groups were cell-free culture media alone (control), MDA231^WT and MDA231^DTD. The fluorescence signal was monitored at 355/460 except for compounds 4 and 11 that were monitored at 405/585 and compounds 8 and 10 that were monitored at 355/585 and 355/535 respectively (FIG. 5).
In a further exemplification, the human breast cancer cell line (MDA231^WT) and a clonal derivative (MDA231^DTD) engineered to express the human NQO1 gene (DT-diaphorase) under the control of a constitutive promoter were seeded into 96-well tissue culture plates at 1×10^5 cells/well. Samples were equilibrated to 37° C., 5% CO2, compound (1) (6-nitro-4(1H)-quinolinone) was added to a final concentration of 300 μM. Test groups were culture media alone (control), MDA231^WT cells and MDA231^DTD cells. The rate of fluorescence signal generation at 355/460 was monitored as a function of time (FIG. 6).

SMILES	fluorescence in control or parental MDA231 WT cultures
O=c1cc[nH]c2ccc([N+](=O)[O-])cc12 [Compound 1, 6-Nitro-4(1H)-quinolinone]	No detectable fluorescence
O=[N+]([O-])c1ccc2[nH]c(-c3ccccc3)nc2c1 [Compound 7, 5-Nitro-2-phenyl-1H-benzimidazole]	No detectable fluorescence
O=c1[nH]cnc2ccc([N+](=O)[O-])cc12 [Compound 5, 6-Nitro-4(3H)-quinazolinone]	No detectable fluorescence
COC(=O)Cn1ccc(=O)c2cc([N+](=O)[O-])ccc21 [Compound 13, Methyl (6-nitro-4-oxo-1(4H)-quinolinyl)acetate]	No detectable fluorescence
CN(C)CCNC(=O)c1cc([N+](=O)[O-])cc2c(O)c3ccccc3nc12 [Compound 4, N-[2-(Dimethylamino)ethyl]-2-nitro-9-oxo-9,10-dihydro-4-acridinecarboxamide]	No detectable fluorescence
O=c1[nH]c(-c2ccccc2)nc2ccc([N+](=O)[O-])cc12 [Compound 6, 6-Nitro-2-phenyl-4(3H)-quinazolinone]	No detectable fluorescence
CN(C)CCCOc1ccnc2cc([N+](=O)[O-])ccc12 [Compound 14, N,N-dimethyl-3-[(7-nitro-4-quinolinyl)oxy]-1-propanamine]	No detectable fluorescence

Test system: not listed separately
Test: Aerobic/anaerobic stability in cell-free culture media (fluorescence)
Assay type: physicochemical
Settings: 100 μM, 37° C., 4 hr, air or 95% N2
Procedure: Compounds 1-15 or methyl 7-nitrocoumarin carboxylate (methyl 7-nitro-2-oxo-2H-chromene-3-carboxylate) or 7-nitrocoumarin-3-carboylic acid or 6-chloro-9-nitro-5H-benzo[a]phenoxazin-5-one were added to a final concentration of 100 μM in cell-free culture media and were held at 37° C., 5% CO2 for 4 hr under either air or 95% N2. The fluorescence signal was monitored at 355/460 except for compounds 4 and 11 that were monitored at 405/585 and compounds 8, 10 and 6-Cl-9-nitro-5-oxo-5H-benzo[a]phenoxazine that were monitored at 355/585, 355/535 and 530/585 respectively (FIG. 12).

SMILES	fluorescence in cell-free culture media (instability)
O=c1cc[nH]c2ccc([N+](=O)[O-])cc12 [Compound 1, 6-Nitro-4(1H)-quinolinone]	no detectable fluorescence
O=[N+]([O-])c1ccc2[nH]c(-c3ccccc3)nc2c1 [Compound 7, 5-Nitro-2-phenyl-1H-benzimidazole]	no detectable fluorescence
O=c1[nH]cnc2ccc([N+](=O)[O-])cc12 [Compound 5, 6-Nitro-4(3H)-quinazolinone]	no detectable fluorescence
COC(=O)Cn1ccc(=O)c2cc([N+](=O)[O-])ccc21 [Compound 13, Methyl (6-nitro-4-oxo-1(4H)-quinolinyl)acetate]	no detectable fluorescence
CN(C)CCNC(=O)c1cc([N+](=O)[O-])cc2c(O)c3ccccc3nc12 [Compound 4, N-[2-(Dimethylamino)ethyl]-2-nitro-9-oxo-9,10-dihydro-4-acridinecarboxamide]	no detectable fluorescence
O=c1[nH]c(-c2ccccc2)nc2ccc([N+](=O)[O-])cc12 [Compound 6, 6-Nitro-2-phenyl-4(3H)-quinazolinone]	no detectable fluorescence
CN(C)CCCOc1ccnc2cc([N+](=O)[O-])ccc12 [Compound 14, N,N-dimethyl-3-[(7-nitro-4-quinolinyl)oxy]-1-propanamine]	no detectable fluorescence

Same assay, conditions: FIG. 12

SMILES	aqueous stability under aerobic or anaerobic conditions compared with 7-nitrocoumarins and 6-chloro-9-nitro-5H-benzo[a]phenoxazin-5-one
O=c1cc[nH]c2ccc([N+](=O)[O-])cc12 [Compound 1, 6-Nitro-4(1H)-quinolinone]	superior aqueous stability
O=[N+]([O-])c1ccc2[nH]c(-c3ccccc3)nc2c1 [Compound 7, 5-Nitro-2-phenyl-1H-benzimidazole]	superior aqueous stability
O=c1[nH]cnc2ccc([N+](=O)[O-])cc12 [Compound 5, 6-Nitro-4(3H)-quinazolinone]	superior aqueous stability
COC(=O)Cn1ccc(=O)c2cc([N+](=O)[O-])ccc21 [Compound 13, Methyl (6-nitro-4-oxo-1(4H)-quinolinyl)acetate]	superior aqueous stability
CN(C)CCNC(=O)c1cc([N+](=O)[O-])cc2c(O)c3ccccc3nc12 [Compound 4, N-[2-(Dimethylamino)ethyl]-2-nitro-9-oxo-9,10-dihydro-4-acridinecarboxamide]	superior aqueous stability
O=c1[nH]c(-c2ccccc2)nc2ccc([N+](=O)[O-])cc12 [Compound 6, 6-Nitro-2-phenyl-4(3H)-quinazolinone]	superior aqueous stability
CN(C)CCCOc1ccnc2cc([N+](=O)[O-])ccc12 [Compound 14, N,N-dimethyl-3-[(7-nitro-4-quinolinyl)oxy]-1-propanamine]	superior aqueous stability

Target: T2, NADPH cytochrome P450 reductase (CYPOR) (Homo sapiens, UniProt P16435)
T2 construct: expressed in transfected cells; host or cells: MDA231 (MDA-231) human breast cancer cell line, clonal derivative MDA231 P450R
T2 sequence (P16435 1-677): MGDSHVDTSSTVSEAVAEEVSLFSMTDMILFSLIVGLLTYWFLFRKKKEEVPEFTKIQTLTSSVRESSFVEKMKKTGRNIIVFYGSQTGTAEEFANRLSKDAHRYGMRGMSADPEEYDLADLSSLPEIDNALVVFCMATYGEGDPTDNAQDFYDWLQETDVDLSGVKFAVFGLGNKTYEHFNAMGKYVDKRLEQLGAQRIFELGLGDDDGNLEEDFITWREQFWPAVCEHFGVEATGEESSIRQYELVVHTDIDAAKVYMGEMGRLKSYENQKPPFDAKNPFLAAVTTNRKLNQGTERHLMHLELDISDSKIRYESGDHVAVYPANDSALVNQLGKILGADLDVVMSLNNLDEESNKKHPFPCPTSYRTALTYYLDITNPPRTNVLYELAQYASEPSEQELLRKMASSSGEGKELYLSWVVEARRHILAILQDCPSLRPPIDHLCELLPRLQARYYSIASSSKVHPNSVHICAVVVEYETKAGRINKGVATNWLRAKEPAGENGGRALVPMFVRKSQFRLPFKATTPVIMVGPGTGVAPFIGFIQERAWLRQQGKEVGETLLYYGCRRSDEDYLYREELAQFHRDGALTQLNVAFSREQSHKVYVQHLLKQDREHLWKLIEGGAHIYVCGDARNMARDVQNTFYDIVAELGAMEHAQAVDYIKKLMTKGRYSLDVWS
Test: Detecting human nitroreductase activity under anoxia in MDA231 P450R cells
Assay type: cell-based
Settings: MDA231 P450R cells, anoxic (N2), 100 μM, 4 hr

SMILES	fluorescent signal in the presence of human cytochrome P450 reductase expression when oxygen was absent
O=c1cc[nH]c2ccc([N+](=O)[O-])cc12 [Compound 1, 6-Nitro-4(1H)-quinolinone]	gave rise to a fluorescent signal
O=c1[nH]cnc2ccc([N+](=O)[O-])cc12 [Compound 5, 6-Nitro-4(3H)-quinazolinone]	gave rise to a fluorescent signal
COC(=O)Cn1ccc(=O)c2cc([N+](=O)[O-])ccc21 [Compound 13, Methyl (6-nitro-4-oxo-1(4H)-quinolinyl)acetate]	gave rise to a fluorescent signal
CN(C)CCNC(=O)c1cc([N+](=O)[O-])cc2c(O)c3ccccc3nc12 [Compound 4, N-[2-(Dimethylamino)ethyl]-2-nitro-9-oxo-9,10-dihydro-4-acridinecarboxamide]	gave rise to a fluorescent signal
CN(C)CCCOc1ccnc2cc([N+](=O)[O-])ccc12 [Compound 14, N,N-dimethyl-3-[(7-nitro-4-quinolinyl)oxy]-1-propanamine]	gave rise to a fluorescent signal

Same assay, conditions: normoxic (air), 100 μM, 4 hr

SMILES	fluorescence in control or aerobic MDA231 P450R cultures
O=c1cc[nH]c2ccc([N+](=O)[O-])cc12 [Compound 1, 6-Nitro-4(1H)-quinolinone]	No detectable fluorescence
O=[N+]([O-])c1ccc2[nH]c(-c3ccccc3)nc2c1 [Compound 7, 5-Nitro-2-phenyl-1H-benzimidazole]	No detectable fluorescence
O=c1[nH]cnc2ccc([N+](=O)[O-])cc12 [Compound 5, 6-Nitro-4(3H)-quinazolinone]	No detectable fluorescence
COC(=O)Cn1ccc(=O)c2cc([N+](=O)[O-])ccc21 [Compound 13, Methyl (6-nitro-4-oxo-1(4H)-quinolinyl)acetate]	No detectable fluorescence
CN(C)CCNC(=O)c1cc([N+](=O)[O-])cc2c(O)c3ccccc3nc12 [Compound 4, N-[2-(Dimethylamino)ethyl]-2-nitro-9-oxo-9,10-dihydro-4-acridinecarboxamide]	No detectable fluorescence
O=c1[nH]c(-c2ccccc2)nc2ccc([N+](=O)[O-])cc12 [Compound 6, 6-Nitro-2-phenyl-4(3H)-quinazolinone]	No detectable fluorescence
CN(C)CCCOc1ccnc2cc([N+](=O)[O-])ccc12 [Compound 14, N,N-dimethyl-3-[(7-nitro-4-quinolinyl)oxy]-1-propanamine]	No detectable fluorescence
